Data from paper PMC5760633, “Determining direct binders of the Androgen Receptor using a high-throughput Cellular Thermal Shift Assay” (Scientific Reports, 2018).

Amino acid sequences for entries named in this document (tags omitted).
UniProt P10275, whole entry H875Y: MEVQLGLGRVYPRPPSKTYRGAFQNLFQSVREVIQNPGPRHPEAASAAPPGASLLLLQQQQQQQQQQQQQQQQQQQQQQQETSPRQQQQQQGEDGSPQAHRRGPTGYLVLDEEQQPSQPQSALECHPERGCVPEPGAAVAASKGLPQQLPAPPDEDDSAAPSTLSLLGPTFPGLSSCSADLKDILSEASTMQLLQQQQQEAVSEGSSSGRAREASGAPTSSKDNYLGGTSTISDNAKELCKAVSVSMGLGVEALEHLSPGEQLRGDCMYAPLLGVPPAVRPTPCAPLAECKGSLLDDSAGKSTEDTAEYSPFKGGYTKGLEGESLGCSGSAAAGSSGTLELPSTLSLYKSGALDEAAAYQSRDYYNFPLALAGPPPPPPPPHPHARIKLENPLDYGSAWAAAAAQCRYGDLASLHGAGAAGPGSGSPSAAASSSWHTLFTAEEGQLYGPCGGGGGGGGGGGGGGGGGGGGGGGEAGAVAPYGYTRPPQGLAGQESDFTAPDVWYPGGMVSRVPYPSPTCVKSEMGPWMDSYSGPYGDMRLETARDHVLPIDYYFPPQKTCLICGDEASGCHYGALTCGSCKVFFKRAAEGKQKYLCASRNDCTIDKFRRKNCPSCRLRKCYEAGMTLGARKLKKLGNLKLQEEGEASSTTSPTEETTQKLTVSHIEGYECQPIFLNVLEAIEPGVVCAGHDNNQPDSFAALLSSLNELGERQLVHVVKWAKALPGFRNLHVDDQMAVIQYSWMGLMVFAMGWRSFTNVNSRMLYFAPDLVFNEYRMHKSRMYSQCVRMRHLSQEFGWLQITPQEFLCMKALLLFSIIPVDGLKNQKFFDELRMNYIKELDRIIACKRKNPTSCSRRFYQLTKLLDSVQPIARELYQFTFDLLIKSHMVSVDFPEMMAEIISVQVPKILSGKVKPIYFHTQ

Target: Androgen Receptor (AR) (Homo sapiens, UniProt P10275, H875Y)
Assay: CETSA HT ITDRF at 46 °C, agonist mode (no exogenous DHT), CWR22Pc-R1-AD1 cells
Assay type: binding

In the case of C[C@]1(O)CC[C@H]2[C@@H]3CCC4=CC(=O)CCC4=C3C=C[C@@]21C, the “compound incubation time at which AR thermal stabilisation is seen” value is reported as ≤ 10 minutes and 10 minutes.

Some entries of the source have several records that differ or are many. The other results are left out here. An entry can have further records. Values given together do not match, cause unknown; they may come from other doses, times, organisms or constructs than stated.
